# Measured values taken from patent US11140896B2, “Two components disinfecting composition containing peracetic acid and chelating agent” (ECOLAB USA INC., priority 2014, dated 2021).
# Some results were stated once for a whole list of compounds, not compound by compound.
# Assay: Determination of the shelf-life of the aqueous disinfectant solution (peracetic acid concentration by iodometric titration)
# Format: physicochemical
compound,measurement,setting,value
O=C([O-])CN(CC(=O)[O-])CC(=O)[O-].[Na+].[Na+].[Na+] [trisodium nitrilotriacetate],shelf life before the level of peracetic acid in the solution falls below 1000 ppm,chelating agent at 0.1 wt.-% in component (B),up to 14 days
same,peracetic acid concentration in solution kept at a level,"for 15 days of storage, chelating agent 0.1% w/w in component (B)",above 1000 ppm
